Results published in the supplement of paper PMC6331611.
± gives the standard deviation of the averaged measurements. In all, about 1,600 compounds were measured (“normalized intracellular growth (luminescence, IQM-normalized) in RAW264.7 macrophages”: median about 1, lowest 2% from about 0.43 on). The list shows a part of the results.

Tested on: Salmonella enterica serovar Typhimurium SL1344
Assay: normalized intracellular growth (luminescence, IQM-normalized) in RAW264.7 macrophages (fraction of plate interquartile mean); higher = more bacterial growth (less inhibition)
Conditions: 10 µM

| SMILES | normalized intracellular growth (time point: T3 (3 h)) | normalized intracellular growth (time point: Tfinal (~6 h)) |
| --- | --- | --- |
| CC(=O)[C@H]1CC[C@H]2[C@@H]3C=CC4=CC(=O)CC[C@@]4(C)[C@@H]3CC[C@]12C | 1.03 ± 0.038 | 0.988 ± 0.17 |
| Cc1cc(=O)[nH]c(=S)[nH]1 | 1.1 ± 0.014 | 0.99 ± 0.06 |
| C[C@H]1O[C@@H](O[C@H]2[C@@H](O)C[C@H](O[C@H]3[C@@H](O)C[C@H](O[C@H]4CC[C@@]5(C)[C@H](CC[C@@H]6[C@@H]5C[C@@H](O)[C@]5(C)[C@@H](C7=CC(=O)OC7)CC[C@]65O)C4)O[C@@H]3C)O[C@@H]2C)C[C@H](O)[C@@H]1O | 1.06 ± 0.043 | 0.991 ± 0.052 |
| Cc1c(OCC(F)(F)F)ccnc1C[S@@+]([O-])c1nc2ccccc2[nH]1 | 0.98 ± 0.076 | 1.18 ± 0.11 |
| CC(C(=O)O)c1ccc(-c2ccccc2)c(F)c1 (configuration not stated) | 0.84 ± 0.071 | 0.955 ± 0.12 |
| COc1cc2c(N3CCN(C(=O)Nc4ccc(OC(C)C)cc4)CC3)ncnc2cc1OCCCN1CCCCC1 | 1.01 ± 0.018 | 0.875 ± 0.012 |
| O=C(OCC(O)CO)c1ccccc1Nc1ccnc2cc(Cl)ccc12 (configuration not stated) | 1.05 ± 0.057 | 0.984 ± 0.1 |
| Nc1nc2[nH]cnc2c(=S)[nH]1 | 0.8645 ± 0.0065 | 0.765 ± 0.04 |
| CC(=O)C1C(=O)C=C(C)OC1=O (configuration not stated) | 1 ± 0.013 | 1.12 ± 0.014 |
| CN(C)C(=O)C(CCN1CCC(O)(c2ccc(Cl)cc2)CC1)(c1ccccc1)c1ccccc1 | 0.981 ± 0.0038 | 1.01 ± 0.016 |
| CO/N=C(\C(=O)N[C@@H]1C(=O)N2C(C(=O)O)=C(CSc3nnnn3C)CS[C@H]12)c1csc(N)n1 | 0.987 ± 0.052 | 0.935 ± 0.032 |
| CC(C(=O)O)c1ccc2c(c1)[nH]c1ccc(Cl)cc12 (configuration not stated) | 1.08 ± 0.042 | 0.948 ± 0.015 |
| O=C1c2c(O)cccc2C([C@@H]2O[C@H](CO)[C@@H](O)[C@H](O)[C@H]2O)c2cc(CO)cc(O)c21 (some centres not stated) | 0.956 ± 0.049 | 1.02 ± 0.052 |
| CN1C(=O)CC[C@H]1c1cccnc1 | 1.02 ± 0.047 | 0.917 ± 0.095 |
| CC[C@@H]1C(=O)OC[C@@H]1Cc1cncn1C | 0.748 ± 0.12 | 0.91 ± 0.11 |
| O=C(OOC(=O)c1ccccc1)c1ccccc1 | 1 ± 0.017 | 1.05 ± 0.037 |
| N[C@@H](Cc1c[nH]c2ccccc12)C(=O)O | 0.9872 ± 0.0059 | 0.97 ± 0.035 |
| CCC1(C)OC(=O)N(C)C1=O (configuration not stated) | 1.03 ± 0.098 | 0.887 ± 0.17 |
| CC(O)Cn1cnc2c1c(=O)n(C)c(=O)n2C (configuration not stated) | 1.02 ± 0.033 | 1.14 ± 0.027 |

| SMILES | normalized intracellular growth (time point: T3 (3 h)) | normalized intracellular growth (time point: Tfinal (~6 h)) |
| --- | --- | --- |
| NS(=O)(=O)c1cc2c(cc1C(F)(F)F)NCNS2(=O)=O | 1.04 ± 0.026 | 0.997 ± 0.083 |
| NC(=O)CCCCC1CCSS1 (configuration not stated) | 0.996 ± 0.093 | 0.817 ± 0.12 |
| C=C(C)[C@H]1CC=C(C)CC1 | 0.96 ± 0.013 | 1.1 ± 0.098 |
| CS(=O)(=O)OCCCCOS(C)(=O)=O | 0.974 ± 0.018 | 0.996 ± 0.033 |
| Cc1c(NC(=O)c2cccnc2)c(=O)n(-c2ccccc2)n1C | 0.955 ± 0.03 | 1.02 ± 0.044 |
| COc1cccc2c1C(=O)c1c(O)c3c(c(O)c1C2=O)C[C@@](O)(C(C)=O)C[C@@H]3O[C@H]1C[C@H](N)[C@H](O)[C@H](C)O1 | 0.982 ± 0.015 | 0.823 ± 0.053 |
| CN1C(CCl)Nc2cc(Cl)c(S(N)(=O)=O)cc2S1(=O)=O (configuration not stated) | 0.922 ± 0.043 | 0.711 ± 0.18 |
| C=CC1=C(C(=O)O)N2C(=O)[C@@H](NC(=O)/C(=N\O)c3csc(N)n3)[C@H]2SC1 | 0.973 ± 0.034 | 0.0262 ± 0.0031 |
| OCc1ccccc1O[C@@H]1O[C@H](CO)[C@@H](O)[C@H](O)[C@H]1O | 1.03 ± 0.044 | 1.02 ± 0.013 |
| Cc1cn([C@H]2C=C[C@@H](CO)O2)c(=O)[nH]c1=O | 1.01 ± 0.059 | 1.18 ± 0.13 |
| CC(=O)NS(=O)(=O)c1ccc(N)cc1 | 1.05 ± 0.028 | 0.967 ± 0.062 |
| CCN(CC)CC(=O)Nc1c(C)cccc1C | 0.986 ± 0.039 | 1.02 ± 0.059 |
| c1ccc2c(CC3=NCCN3)cccc2c1 | 1 ± 0.021 | 1.09 ± 0.053 |
| CC(=O)OCC(=O)[C@@]12OC(C)(C)O[C@@H]1C[C@H]1[C@@H]3C[C@H](F)C4=CC(=O)C=C[C@]4(C)[C@@]3(F)[C@@H](O)C[C@@]12C | 0.903 ± 0.063 | 0.872 ± 0.072 |
| O=c1oc2c(O)c(O)cc3c(=O)oc4c(O)c(O)cc1c4c23 | 0.983 ± 0.0091 | 0.79 ± 0.23 |
| O=C1NS(=O)(=O)c2ccccc21 | 0.992 ± 0.048 | 1.01 ± 0.071 |
| CC(=O)CC(c1ccccc1)c1c(O)c2ccccc2oc1=O (configuration not stated) | 0.971 ± 0.064 | 1.22 ± 0.14 |
| OCCN(CCO)c1nc(N2CCCCC2)c2nc(N(CCO)CCO)nc(N3CCCCC3)c2n1 | 1.03 ± 0.021 | 1.24 ± 0.2 |
| O=C(O)c1ccccc1C(=O)Nc1ccc(S(=O)(=O)Nc2nccs2)cc1 | 0.992 ± 0.04 | 0.914 ± 0.1 |

| SMILES | normalized intracellular growth (time point: T3 (3 h)) | normalized intracellular growth (time point: Tfinal (~6 h)) |
| --- | --- | --- |
| C[N+](C)(C)CC(=O)O | 1.05 ± 0.037 | 0.964 ± 0.054 |
| C[C@]12CC[C@@H]3c4ccc(OC(=O)c5ccccc5)cc4CC[C@H]3[C@@H]1CC[C@@H]2O | 0.747 ± 0.015 | 0.877 ± 0.072 |
| CN1CCN(C(c2ccccc2)c2ccccc2)CC1 | 1.06 ± 0.016 | 0.853 ± 0.056 |
| C(=C\c1ccccc1)/CN1CCN(C(c2ccccc2)c2ccccc2)CC1 | 0.962 ± 0.084 | 0.976 ± 0.13 |
| Cc1c(-c2cnccn2)ssc1=S | 1.05 ± 0.084 | 0.999 ± 0.22 |
| CCN(CC)CCNC(C(=O)OCCC(C)C)c1ccccc1 (configuration not stated) | 0.991 ± 0.049 | 0.952 ± 0.23 |
| C[C@@H]1C[C@H]2[C@@H]3CCC4=CC(=O)C=C[C@]4(C)[C@@]3(F)[C@@H](O)C[C@]2(C)[C@@]1(O)C(=O)COP(=O)(O)O | 0.985 ± 0.023 | 1.02 ± 0.067 |
| N[C@@H](Cc1cc(I)c(Oc2ccc(O)c(I)c2)c(I)c1)C(=O)O [LIOTHYRONINE (L- isomer) SODIUM] | 0.909 ± 0.09 | 0.957 ± 0.096 |
| N[C@@H](Cc1cc(I)c(Oc2ccc(O)c(I)c2)c(I)c1)C(=O)O | 0.708 ± 0.098 | 0.839 ± 0.049 |
| CN1CCC(=C2c3ccccc3Sc3ccccc32)CC1 | 1 ± 0.049 | 1.05 ± 0.15 |
| Nc1c2ccccc2nc2ccccc12 | 1.04 ± 0.023 | 0.907 ± 0.075 |
| C[C@H](CCC(=O)O)[C@H]1CC[C@H]2[C@@H]3[C@@H](O)C[C@@H]4C[C@H](O)CC[C@]4(C)[C@H]3CC[C@]12C | 0.939 ± 0.065 | 0.972 ± 0.083 |
| O=C(CCCN1CCN(c2ccccn2)CC1)c1ccc(F)cc1 | 1.17 ± 0.14 | 1.17 ± 0.45 |
| NC[C@@H]1O[C@@H](O[C@H]2[C@H](O)[C@@H](O[C@H]3O[C@H](CO)[C@@H](O)[C@H](N)[C@H]3O)[C@H](N)C[C@@H]2N)[C@@H](O)[C@H](O)[C@H]1O | 1.08 ± 0.046 | 1.13 ± 0.015 |
| CC1CC(OC(=O)c2ccccc2O)CC(C)(C)C1 (configuration not stated) | 1.04 ± 0.032 | 1.07 ± 0.04 |
| O=C1c2ccccc2C(=O)C1c1ccc(Br)cc1 | 1.08 ± 0.047 | 1.15 ± 0.21 |
| NC(=O)CC[C@H](N)C(=O)O | 0.996 ± 0.029 | 0.867 ± 0.12 |
| CC=CC1=C(C(=O)O)N2C(=O)[C@@H](NC(=O)[C@H](N)c3ccc(O)cc3)[C@H]2SC1 | 1.06 ± 0.039 | 0.738 ± 0.11 |

Whole records, quoted from the list.
CN1CCC(=C2c3ccccc3Sc3ccccc32)CC1 as listed: normalized intracellular growth (time point: T3 (3 h)): 1 ± 0.049; normalized intracellular growth (time point: Tfinal (~6 h)): 1.05 ± 0.15
C[C@@H]1C[C@H]2[C@@H]3CCC4=CC(=O)C=C[C@]4(C)[C@@]3(F)[C@@H](O)C[C@]2(C)[C@@]1(O)C(=O)COP(=O)(O)O as listed: normalized intracellular growth (time point: T3 (3 h)): 0.985 ± 0.023; normalized intracellular growth (time point: Tfinal (~6 h)): 1.02 ± 0.067
